Targets include GFP-BRCA1 (UniProt P38398); GFP-BRCA1 (1–1,071) (UniProt P38398); GFP-BRCA1 S1336A mutant (UniProt P38398); GFP-BRCA1 (1,063–1,863) (UniProt P38398).
Holding throughout (test): co-IP; GFP immunoprecipitation (GFP-Trap agarose) from 2.5 mg whole-cell extract of co-transfected HEK293 cells, 2 h at 4°C; cells treated or not with 10 Gy IR or 3 mM HU for 2 h (2 or 4 h for the BRCA1 fragments); Western blot
Background: In western blotting, separated proteins are transferred to a membrane and probed.

Chains of the proteins cited; added tags and fusions are not shown.
UniProt Q02539: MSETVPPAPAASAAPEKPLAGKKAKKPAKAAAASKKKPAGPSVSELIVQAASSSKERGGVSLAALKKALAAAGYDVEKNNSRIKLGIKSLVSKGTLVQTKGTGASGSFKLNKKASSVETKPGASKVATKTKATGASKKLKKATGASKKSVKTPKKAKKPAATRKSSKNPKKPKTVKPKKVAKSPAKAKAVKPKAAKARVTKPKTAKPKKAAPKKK
UniProt P16402: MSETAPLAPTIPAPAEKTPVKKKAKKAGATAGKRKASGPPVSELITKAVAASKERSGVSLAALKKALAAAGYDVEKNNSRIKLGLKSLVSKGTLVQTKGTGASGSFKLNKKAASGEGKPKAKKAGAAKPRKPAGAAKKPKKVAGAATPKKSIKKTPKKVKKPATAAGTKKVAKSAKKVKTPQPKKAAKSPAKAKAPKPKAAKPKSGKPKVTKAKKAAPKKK

These are yes or no findings as the source states them, for the method shown. Binding seen in cells or lysates may run through a third protein. Some entries that bind do so weakly or less than the wild type.

Turning to FLAG-H1.1 (from UniProt Q02539 1-215), the binding entry with GFP-BRCA1 is “binds”.

Take FLAG-H1.3 (from UniProt P16402 1-221): the binding entry in the test with GFP-BRCA1 (1–1,071), with GFP-BRCA1 S1336A mutant, with GFP-BRCA1 and with GFP-BRCA1 (1,063–1,863) was “binds” throughout.

The values above are taken from PMC10292663.
